These results are taken from US20250283871A1, “COMPOSITIONS AND METHODS FOR MODULATING THE INTERACTION BETWEEN SS18-SSX FUSION ONCOPROTEIN AND NUCLEOSOMES” (Dana-Farber Cancer Institute, Inc., priority 2020, published 2025).

The test system of the data set is BAF complex subunits and histone proteins. Nature of the data set: Mass spectrometry proteomics of purified HA-SS18 WT and HA-SS18-SSX1 complexes (Tables 5A-5E). Also noted: species or system human. The note with it: for Total / Unique: HA-SS18SSX1_CHR_peptides; for Total: total peptides of the identified protein; for Unique: unique peptides of the identified protein.

Setting [1] is: HA-SS18SSX1_CHR_peptides: protein identified in the HA-SS18-SSX1 purification from solubilized chromatin (CHR), HEK-293T.
Setting [2] is: HA-SS18SSX1 purification, NE (soluble nuclear extract) fraction, HEK-293T, peptides per identified protein.
Where [3] appears, read: HA-SS18WT_CHR_peptides: HA-SS18 WT purification from nuclease-treated solubilized chromatin (CHR), HEK-293T, label = protein identified.
Setting [4] is: HA-SS18WT_NE_peptides: proteins co-purified with HA-SS18 WT from nuclear extract (NE), HEK-293T.
The mark [5] stands for this setting: HA-SS18SSX1_NE_peptides: protein co-purified with HA-SS18-SSX1 BAF complexes from soluble nuclear extract (NE), HEK-293T cells.
The mark [6] stands for this setting: HA-SS18WT_CHR_peptides: protein identified in HA-SS18 WT BAF complex purification from nuclease-treated solubilized chromatin (CHR), HEK-293T.
The mark [7] stands for this setting: HA-SS18WT_NE_peptides: HA-SS18 WT complexes purified from nuclear extract (NE), HEK-293T, label = protein identified (Gene Symbol).
Setting [8] is: HA-SS18SSX1_CHR_peptides: proteins found in HA-SS18-SSX1 BAF complex purification from solubilized chromatin (CHR), HEK-293T.
[9] abbreviates: HA-SS18SSX1_NE_peptides (Table 5B), HA-SS18-SSX1 BAF complex purification from soluble nuclear extract, HEK-293T.

As to DDX21, the “Total (total peptides)” value runs as follows: under setting [1], 10; under setting [2], 4. Moreover, the “Unique (unique peptides)” value turned out to be 9 under setting [1] and 4 under setting [2]. For the same substance, the “Total (peptides)” value was determined as 9 under setting [3] and 2 under setting [4]. Moreover, the “Unique (peptides)” value by setting is: under setting [3], 9; under setting [4], 2.
With DDX39A, the Total is recorded as 2 and the Unique was found to be 2. Moreover, under setting [5], the “Total (peptides)” value turned out to be 1 and the “Unique (peptides)” value is 1. Under setting [6], the “Total (total peptides)” value is recorded as 1 and the “Unique (unique peptides)” value was 1.
Consider DDX41, for which the Total came out at 2 and the Unique is listed as 2. Also, under setting [2], the “Total (total peptides)” value came to 15 and the “Unique (unique peptides)” value turned out to be 13. Further, under setting [3], the “Total (peptides)” value is recorded as 9 and the “Unique (peptides)” value came out at 9. Further, under setting [7], the “Total (peptides)” value is 8 and the “Unique (peptides)” value is given as 8.
Take DDX52: under setting [1], the “Total (total peptides)” value worked out at 10 and the “Unique (unique peptides)” value turned out to be 9. Under setting [2], the “Total (total peptides)” value is on record as 6 and the “Unique (unique peptides)” value worked out at 6. Also, under setting [3], the “Total (peptides)” value turned out to be 10 and the “Unique (peptides)” value was 8. Besides, under setting [7], the “Total (peptides)” value was determined as 7 and the “Unique (peptides)” value was 7.
Take DDX54: under setting [1], the “Total (total peptides)” value was determined as 11 and the “Unique (unique peptides)” value was found to be 11. Under setting [3], the “Total (peptides)” value was determined as 8 and the “Unique (peptides)” value is reported as 8. Further, under setting [4], the “Total (peptides)” value came to 2 and the “Unique (peptides)” value worked out at 2.
DECR1: under setting [5], the “Total (peptides)” value worked out at 1 and the “Unique (peptides)” value was 1.
For the substance DEPDC1B, under setting [4], the “Total (peptides)” value worked out at 1 and the “Unique (peptides)” value is 1.
The substance DES yielded a Total of 3 and a Unique of 2. Under setting [6], the “Total (total peptides)” value worked out at 2 and the “Unique (unique peptides)” value worked out at 2.
DHX33 gave a Total of 2 and a Unique of 2. Moreover, under setting [6], the “Total (total peptides)” value was found to be 1 and the “Unique (unique peptides)” value came to 1.
In the case of DIDO1, the Total is 1 and the Unique came out at 1.
In the case of DMBT1, under setting [6], the “Total (total peptides)” value is 1 and the “Unique (unique peptides)” value came to 1.
On to DNAJA1, for which the “Total (peptides)” value runs as follows: under setting [5], 2; under setting [7], 3. In addition, the “Unique (peptides)” value is 2 under setting [5] and 3 under setting [7].
For the substance DNAJA2, under setting [5], the “Total (peptides)” value amounted to 1 and the “Unique (peptides)” value turned out to be 1. Moreover, under setting [4], the “Total (peptides)” value came to 1 and the “Unique (peptides)” value is 1.
Consider DNAJB6, for which, under setting [8], the “Total (peptides)” value is reported as 1 and the “Unique (peptides)” value turned out to be 1.
On to DNAJC19, for which, under setting [5], the “Total (peptides)” value was 1 and the “Unique (peptides)” value was found to be 1.
Consider DNM2, for which, under setting [2], the “Total (total peptides)” value came to 8 and the “Unique (unique peptides)” value came to 8. For the same substance, under setting [7], the “Total (peptides)” value stood at 6 and the “Unique (peptides)” value is 5.
EED displayed a Total of 2 and a Unique of 2. Also, under setting [6], the “Total (total peptides)” value is 1 and the “Unique (unique peptides)” value was determined as 1.
As to EEF1G, under setting [2], the “Total (total peptides)” value is listed as 4 and the “Unique (unique peptides)” value was 4. Under setting [7], the “Total (peptides)” value is given as 6 and the “Unique (peptides)” value is reported as 6.
In the case of EFTUD2, under setting [1], the “Total (total peptides)” value is reported as 17 and the “Unique (unique peptides)” value turned out to be 17. Further, under setting [2], the “Total (total peptides)” value is 11 and the “Unique (unique peptides)” value turned out to be 11. Also, under setting [3], the “Total (peptides)” value was determined as 11 and the “Unique (peptides)” value was found to be 10. Under setting [7], the “Total (peptides)” value was 15 and the “Unique (peptides)” value stood at 15.
On to EIF2B4 [listing 1 of 2 here], for which, under setting [9], the “Total (peptides)” value is given as 1 and the “Unique (peptides)” value is recorded as 1.
As to EIF2B4 [listing 2 of 2 here], under setting [4], the “Total (peptides)” value turned out to be 1 and the “Unique (peptides)” value was found to be 1.
On to ELAVL1, for which, under setting [6], the “Total (total peptides)” value stood at 2 and the “Unique (unique peptides)” value turned out to be 2.
As to ENO1, under setting [3], the “Total (peptides)” value came out at 4 and the “Unique (peptides)” value amounted to 4.
In the case of EPB41L2, under setting [5], the “Total (peptides)” value was 2 and the “Unique (peptides)” value is given as 2.
For the substance EPB41L5, under setting [2], the “Total (total peptides)” value came out at 5 and the “Unique (unique peptides)” value came out at 5. In addition, under setting [6], the “Total (total peptides)” value worked out at 1 and the “Unique (unique peptides)” value is given as 1. Under setting [7], the “Total (peptides)” value is on record as 3 and the “Unique (peptides)” value amounted to 3.
With ERCC2, under setting [2], the “Total (total peptides)” value came out at 5 and the “Unique (unique peptides)” value amounted to 5. Also, under setting [7], the “Total (peptides)” value is reported as 3 and the “Unique (peptides)” value came to 3.
Take ESYT2 [listing 1 of 2 here]: under setting [5], the “Total (peptides)” value turned out to be 1 and the “Unique (peptides)” value is 1.
On to ESYT2 [listing 2 of 2 here], for which, under setting [2], the “Total (total peptides)” value is 12 and the “Unique (unique peptides)” value came out at 12. Besides, under setting [7], the “Total (peptides)” value is on record as 7 and the “Unique (peptides)” value came out at 7. Further, under setting [4], the “Total (peptides)” value amounted to 1 and the “Unique (peptides)” value is listed as 1.
Consider EXOC4, for which, under setting [4], the “Total (peptides)” value amounted to 1 and the “Unique (peptides)” value is reported as 1.
Regarding EZH2, the Total came out at 1 and the Unique is recorded as 1. Moreover, under setting [6], the “Total (total peptides)” value was 2 and the “Unique (unique peptides)” value is on record as 2.
In the case of FABP5, under setting [6], the “Total (total peptides)” value was determined as 1 and the “Unique (unique peptides)” value is reported as 1.
On to FAM208A, for which, under setting [1], the “Total (total peptides)” value was found to be 13 and the “Unique (unique peptides)” value amounted to 13. For the same substance, under setting [3], the “Total (peptides)” value turned out to be 6 and the “Unique (peptides)” value is 6.
Turning to FAM208B, under setting [1], the “Total (total peptides)” value was 6 and the “Unique (unique peptides)” value was 6. Further, under setting [3], the “Total (peptides)” value stood at 4 and the “Unique (peptides)” value is 4.
Regarding FANCD2 [listing 1 of 2 here], under setting [9], the “Total (peptides)” value is 1 and the “Unique (peptides)” value is 1.
Consider FANCD2 [listing 2 of 2 here], for which, under setting [4], the “Total (peptides)” value is 1 and the “Unique (peptides)” value is listed as 1.
For FANCI, the “Total (peptides)” value by setting is: under setting [5], 2; under setting [7], 3. The “Unique (peptides)” value by setting is: under setting [5], 2; under setting [7], 3.
In the case of FIS1, under setting [4], the “Total (peptides)” value is 1 and the “Unique (peptides)” value was found to be 1.
In the case of FLNA, under setting [6], the “Total (total peptides)” value is recorded as 1 and the “Unique (unique peptides)” value was found to be 1.
GAPDH [listing 1 of 2 here]: under setting [5], the “Total (peptides)” value amounted to 1 and the “Unique (peptides)” value is 1.
The substance GAPDH [listing 2 of 2 here] yielded a Total of 3 and a Unique of 2. Besides, under setting [3], the “Total (peptides)” value stood at 3 and the “Unique (peptides)” value is 3.
Regarding GAR1, the “Total (total peptides)” value runs as follows: under setting [1], 5; under setting [6], 1. Moreover, the “Unique (unique peptides)” value by setting is: under setting [1], 5; under setting [6], 1.
On to GCN1, for which, under setting [2], the “Total (total peptides)” value was 6 and the “Unique (unique peptides)” value is on record as 6. For the same substance, under setting [7], the “Total (peptides)” value is on record as 9 and the “Unique (peptides)” value is 8.
Regarding GLTSCR2, the Total came out at 1 and the Unique is listed as 1. Under setting [3], the “Total (peptides)” value was determined as 3 and the “Unique (peptides)” value was found to be 3.
